Our source for the log2 fold change values is the supplement of paper PMC10849652.

By UniProt entry, the sequences of proteins in these tests, tags left out. Where a name states a change or a piece, a line headed by the entry shows the natural chain unless it says otherwise.
UniProt Q9UIM3: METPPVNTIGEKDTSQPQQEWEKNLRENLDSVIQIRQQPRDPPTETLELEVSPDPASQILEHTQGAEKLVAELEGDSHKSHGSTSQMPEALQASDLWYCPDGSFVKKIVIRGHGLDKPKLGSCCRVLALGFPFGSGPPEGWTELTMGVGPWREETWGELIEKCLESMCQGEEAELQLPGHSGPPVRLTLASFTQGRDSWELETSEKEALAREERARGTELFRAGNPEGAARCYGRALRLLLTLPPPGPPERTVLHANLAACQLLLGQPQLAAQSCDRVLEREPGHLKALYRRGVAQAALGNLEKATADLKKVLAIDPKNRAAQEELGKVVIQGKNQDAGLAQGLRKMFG
UniProt P26885: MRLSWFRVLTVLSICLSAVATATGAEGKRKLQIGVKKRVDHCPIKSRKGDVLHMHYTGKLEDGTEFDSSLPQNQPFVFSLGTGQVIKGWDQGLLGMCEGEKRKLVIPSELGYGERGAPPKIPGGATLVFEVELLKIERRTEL
UniProt Q8N3X1: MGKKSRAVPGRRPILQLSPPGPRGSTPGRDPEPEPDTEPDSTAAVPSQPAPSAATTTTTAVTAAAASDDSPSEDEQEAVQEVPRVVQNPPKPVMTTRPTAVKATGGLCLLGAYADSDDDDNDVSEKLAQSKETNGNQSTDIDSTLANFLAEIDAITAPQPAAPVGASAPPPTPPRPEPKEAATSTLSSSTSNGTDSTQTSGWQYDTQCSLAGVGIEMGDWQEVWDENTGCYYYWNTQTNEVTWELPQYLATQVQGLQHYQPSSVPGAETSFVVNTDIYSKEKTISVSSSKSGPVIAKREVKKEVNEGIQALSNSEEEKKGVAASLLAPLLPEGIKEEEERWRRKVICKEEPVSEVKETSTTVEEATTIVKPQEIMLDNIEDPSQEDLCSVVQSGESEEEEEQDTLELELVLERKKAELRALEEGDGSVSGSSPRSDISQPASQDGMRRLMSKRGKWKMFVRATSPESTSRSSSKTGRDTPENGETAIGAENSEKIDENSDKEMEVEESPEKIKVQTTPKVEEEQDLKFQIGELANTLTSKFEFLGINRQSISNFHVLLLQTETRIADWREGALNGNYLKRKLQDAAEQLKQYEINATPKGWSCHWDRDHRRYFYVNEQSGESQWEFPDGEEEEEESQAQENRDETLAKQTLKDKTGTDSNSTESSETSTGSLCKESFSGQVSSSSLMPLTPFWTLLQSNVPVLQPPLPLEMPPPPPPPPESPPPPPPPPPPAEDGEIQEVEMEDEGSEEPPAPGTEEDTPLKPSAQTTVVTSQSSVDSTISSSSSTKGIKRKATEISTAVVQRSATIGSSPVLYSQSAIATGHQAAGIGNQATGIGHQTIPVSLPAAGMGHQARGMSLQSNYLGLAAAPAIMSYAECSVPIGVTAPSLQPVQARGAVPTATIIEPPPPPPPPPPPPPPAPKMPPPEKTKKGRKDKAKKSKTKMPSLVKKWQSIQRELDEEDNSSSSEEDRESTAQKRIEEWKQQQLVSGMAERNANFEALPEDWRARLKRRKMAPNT
UniProt Q96ME1: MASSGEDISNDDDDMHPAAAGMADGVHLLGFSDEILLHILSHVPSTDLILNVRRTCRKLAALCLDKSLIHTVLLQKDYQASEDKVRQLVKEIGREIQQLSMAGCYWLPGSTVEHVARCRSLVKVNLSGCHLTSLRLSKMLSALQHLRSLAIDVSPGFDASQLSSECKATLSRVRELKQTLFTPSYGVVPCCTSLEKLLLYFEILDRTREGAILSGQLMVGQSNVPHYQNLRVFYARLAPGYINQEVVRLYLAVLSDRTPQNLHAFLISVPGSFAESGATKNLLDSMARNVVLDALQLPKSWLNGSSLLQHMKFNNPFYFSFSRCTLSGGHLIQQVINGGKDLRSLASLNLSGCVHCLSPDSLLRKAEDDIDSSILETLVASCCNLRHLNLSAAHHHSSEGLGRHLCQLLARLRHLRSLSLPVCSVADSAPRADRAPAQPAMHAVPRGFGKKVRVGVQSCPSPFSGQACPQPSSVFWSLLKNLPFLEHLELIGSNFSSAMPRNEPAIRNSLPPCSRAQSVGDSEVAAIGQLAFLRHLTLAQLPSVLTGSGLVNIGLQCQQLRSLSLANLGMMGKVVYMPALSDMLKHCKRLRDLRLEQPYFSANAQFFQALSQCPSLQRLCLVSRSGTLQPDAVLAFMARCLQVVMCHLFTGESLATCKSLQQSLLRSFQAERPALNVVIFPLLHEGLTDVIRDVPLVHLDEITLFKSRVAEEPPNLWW
UniProt P49327, whole entry, looked up: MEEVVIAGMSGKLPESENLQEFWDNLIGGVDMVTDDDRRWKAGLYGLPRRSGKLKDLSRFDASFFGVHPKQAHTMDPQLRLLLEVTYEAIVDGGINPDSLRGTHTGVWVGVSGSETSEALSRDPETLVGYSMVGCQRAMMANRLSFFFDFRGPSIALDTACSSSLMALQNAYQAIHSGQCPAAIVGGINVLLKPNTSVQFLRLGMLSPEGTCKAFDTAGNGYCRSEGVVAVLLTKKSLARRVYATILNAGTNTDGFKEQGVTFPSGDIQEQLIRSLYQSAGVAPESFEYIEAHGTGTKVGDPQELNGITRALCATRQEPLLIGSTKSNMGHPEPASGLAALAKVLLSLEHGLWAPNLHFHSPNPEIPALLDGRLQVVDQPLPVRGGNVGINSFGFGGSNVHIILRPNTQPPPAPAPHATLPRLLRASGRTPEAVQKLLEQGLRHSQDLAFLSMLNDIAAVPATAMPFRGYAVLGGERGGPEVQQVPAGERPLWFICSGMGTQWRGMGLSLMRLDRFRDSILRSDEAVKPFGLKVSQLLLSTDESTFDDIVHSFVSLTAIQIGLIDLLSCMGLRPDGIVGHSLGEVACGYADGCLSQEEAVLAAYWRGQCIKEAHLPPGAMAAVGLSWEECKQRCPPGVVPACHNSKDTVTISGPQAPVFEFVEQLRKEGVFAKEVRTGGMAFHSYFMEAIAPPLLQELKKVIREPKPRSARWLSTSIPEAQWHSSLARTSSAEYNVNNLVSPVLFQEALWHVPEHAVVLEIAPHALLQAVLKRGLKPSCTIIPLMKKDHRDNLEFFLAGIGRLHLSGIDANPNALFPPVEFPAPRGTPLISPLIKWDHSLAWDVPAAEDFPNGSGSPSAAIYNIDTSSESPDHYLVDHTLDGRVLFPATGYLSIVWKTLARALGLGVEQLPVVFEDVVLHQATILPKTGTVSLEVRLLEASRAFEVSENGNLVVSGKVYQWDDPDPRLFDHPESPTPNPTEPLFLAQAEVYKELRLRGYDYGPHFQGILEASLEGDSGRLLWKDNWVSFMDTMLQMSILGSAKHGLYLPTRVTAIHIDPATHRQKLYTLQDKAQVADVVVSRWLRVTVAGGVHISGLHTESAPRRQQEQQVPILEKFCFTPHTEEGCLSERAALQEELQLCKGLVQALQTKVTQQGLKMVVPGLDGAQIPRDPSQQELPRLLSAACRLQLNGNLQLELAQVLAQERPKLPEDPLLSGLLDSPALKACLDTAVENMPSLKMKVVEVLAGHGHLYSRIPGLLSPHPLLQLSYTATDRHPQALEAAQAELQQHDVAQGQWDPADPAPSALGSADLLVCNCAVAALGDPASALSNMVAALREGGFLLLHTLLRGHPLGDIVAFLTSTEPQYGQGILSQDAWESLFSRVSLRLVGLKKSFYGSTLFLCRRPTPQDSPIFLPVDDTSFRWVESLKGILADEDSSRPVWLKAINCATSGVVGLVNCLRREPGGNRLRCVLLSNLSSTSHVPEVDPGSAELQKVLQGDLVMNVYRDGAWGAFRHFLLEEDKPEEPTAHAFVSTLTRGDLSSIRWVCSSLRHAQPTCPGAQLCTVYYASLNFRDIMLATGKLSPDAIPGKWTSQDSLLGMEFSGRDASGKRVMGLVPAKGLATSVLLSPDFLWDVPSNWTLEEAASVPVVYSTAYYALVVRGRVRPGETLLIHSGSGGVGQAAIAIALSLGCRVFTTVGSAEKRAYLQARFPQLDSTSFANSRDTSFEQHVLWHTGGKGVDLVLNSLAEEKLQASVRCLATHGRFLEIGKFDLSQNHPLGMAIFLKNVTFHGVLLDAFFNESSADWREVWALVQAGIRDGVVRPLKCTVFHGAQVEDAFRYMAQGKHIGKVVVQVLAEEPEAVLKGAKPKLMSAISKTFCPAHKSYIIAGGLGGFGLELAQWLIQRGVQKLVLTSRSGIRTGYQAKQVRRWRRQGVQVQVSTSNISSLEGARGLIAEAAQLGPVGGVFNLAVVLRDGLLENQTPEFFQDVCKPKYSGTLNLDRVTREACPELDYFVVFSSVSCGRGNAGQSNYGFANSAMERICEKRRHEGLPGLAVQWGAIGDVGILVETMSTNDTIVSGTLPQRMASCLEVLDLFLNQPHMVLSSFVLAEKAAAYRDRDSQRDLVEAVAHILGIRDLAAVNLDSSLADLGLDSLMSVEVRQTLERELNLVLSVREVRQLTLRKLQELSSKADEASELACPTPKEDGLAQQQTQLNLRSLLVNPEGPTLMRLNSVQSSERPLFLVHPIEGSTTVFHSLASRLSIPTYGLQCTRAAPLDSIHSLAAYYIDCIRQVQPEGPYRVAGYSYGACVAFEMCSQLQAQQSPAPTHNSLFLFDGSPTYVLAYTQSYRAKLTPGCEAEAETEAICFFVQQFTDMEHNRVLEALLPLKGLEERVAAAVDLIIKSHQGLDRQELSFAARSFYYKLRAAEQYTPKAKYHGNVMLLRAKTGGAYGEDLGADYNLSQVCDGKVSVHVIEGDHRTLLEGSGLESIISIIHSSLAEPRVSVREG
UniProt Q9NSD9: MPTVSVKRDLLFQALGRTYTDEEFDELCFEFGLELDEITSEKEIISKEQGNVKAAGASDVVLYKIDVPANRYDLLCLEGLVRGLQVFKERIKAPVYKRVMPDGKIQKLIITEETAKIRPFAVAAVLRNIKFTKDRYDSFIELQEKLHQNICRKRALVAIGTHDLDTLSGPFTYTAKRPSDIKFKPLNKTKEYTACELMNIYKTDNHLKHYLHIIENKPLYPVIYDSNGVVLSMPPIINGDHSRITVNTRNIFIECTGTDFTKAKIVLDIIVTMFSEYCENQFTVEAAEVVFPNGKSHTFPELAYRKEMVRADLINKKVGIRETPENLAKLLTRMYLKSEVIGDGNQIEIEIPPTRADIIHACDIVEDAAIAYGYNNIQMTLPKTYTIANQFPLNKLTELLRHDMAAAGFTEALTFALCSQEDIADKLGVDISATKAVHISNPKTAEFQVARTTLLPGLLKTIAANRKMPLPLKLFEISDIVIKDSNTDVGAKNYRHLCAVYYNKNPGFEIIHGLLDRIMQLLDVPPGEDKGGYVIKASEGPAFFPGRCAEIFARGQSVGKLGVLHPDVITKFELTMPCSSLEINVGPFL
UniProt O75955: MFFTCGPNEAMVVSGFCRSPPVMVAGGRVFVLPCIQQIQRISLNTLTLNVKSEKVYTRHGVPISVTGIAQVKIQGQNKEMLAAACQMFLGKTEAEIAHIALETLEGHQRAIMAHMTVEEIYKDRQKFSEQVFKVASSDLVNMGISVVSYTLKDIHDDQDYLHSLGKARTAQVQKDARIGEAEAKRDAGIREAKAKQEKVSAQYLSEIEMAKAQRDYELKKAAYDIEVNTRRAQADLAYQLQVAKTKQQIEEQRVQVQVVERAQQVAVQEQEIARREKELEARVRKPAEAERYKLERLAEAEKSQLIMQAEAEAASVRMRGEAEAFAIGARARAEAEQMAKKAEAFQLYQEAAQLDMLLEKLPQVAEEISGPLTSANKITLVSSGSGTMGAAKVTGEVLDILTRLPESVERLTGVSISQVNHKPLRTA
UniProt Q8NEZ5: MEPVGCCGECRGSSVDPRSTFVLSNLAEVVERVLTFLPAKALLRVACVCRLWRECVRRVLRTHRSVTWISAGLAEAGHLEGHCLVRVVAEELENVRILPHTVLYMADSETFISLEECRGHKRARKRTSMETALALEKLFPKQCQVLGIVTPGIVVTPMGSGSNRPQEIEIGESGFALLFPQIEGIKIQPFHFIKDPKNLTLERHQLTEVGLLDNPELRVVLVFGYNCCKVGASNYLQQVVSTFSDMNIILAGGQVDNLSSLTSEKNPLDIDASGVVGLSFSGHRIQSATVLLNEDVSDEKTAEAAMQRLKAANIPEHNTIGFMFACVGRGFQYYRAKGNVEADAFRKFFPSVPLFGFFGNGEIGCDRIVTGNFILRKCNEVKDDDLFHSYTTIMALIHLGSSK
UniProt Q9HA64: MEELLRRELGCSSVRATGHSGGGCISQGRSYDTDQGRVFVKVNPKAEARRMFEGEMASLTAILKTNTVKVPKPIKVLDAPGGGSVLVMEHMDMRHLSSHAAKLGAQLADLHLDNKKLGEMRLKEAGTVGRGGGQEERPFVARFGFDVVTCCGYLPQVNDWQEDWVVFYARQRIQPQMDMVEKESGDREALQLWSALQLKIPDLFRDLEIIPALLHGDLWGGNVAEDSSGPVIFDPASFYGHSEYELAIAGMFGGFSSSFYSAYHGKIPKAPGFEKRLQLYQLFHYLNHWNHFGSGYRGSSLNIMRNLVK
UniProt Q9Y421: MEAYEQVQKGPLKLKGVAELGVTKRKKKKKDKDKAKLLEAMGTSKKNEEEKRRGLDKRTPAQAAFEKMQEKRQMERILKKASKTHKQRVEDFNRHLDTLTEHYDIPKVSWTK

This is one part of the list.

Compound in one assay: CCCS(=O)(=O)Nc1ccc(F)c(C(=O)c2c[nH]c3ncc(Cl)cc23)c1F
The assay can be described thus: log2 fold change, soluble protein after heating vs DMSO (PISA); higher = thermal stabilisation; K562 cells, 10 uM, 30 min; active = over 0.2 and 3.5 SD of the protein, either way, in both replicates (recomputed). In short, it runs like this:
(§1)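 Values are thermal stability changes relative to control samples and are taken from duplicates. They are stated as log2 fold changes. Before quantification by TMTpro 16plex LC-MS/MS with equalised channel sums, K562 cells at 2×10^6 cells/mL were treated with 10 μM compound for 30 min, heated in aliquots for 3 min across 48°C-58°C, pooled, extracted in PBS with 0.5% NP-40 at 4°C, and centrifuged at 21,000xg for 90 min to give the soluble supernatant.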
Take FDX1 (UniProt P10109): the log2 fold change was inactive: -0.012.
With FBXL12 (UniProt Q9NXK8), the log2 fold change is inactive: 0.017.
FKBPL (UniProt Q9UIM3): the log2 fold change was inactive: -0.013.
As for FCGR2C (UniProt P31995), the log2 fold change was inactive: -0.014.
On to FANCB (UniProt Q8NB91), for which the log2 fold change was inactive: 0.029.
As to FIP1L1 (UniProt Q6UN15), the log2 fold change is inactive: -0.021.
Still for that read-out and setting: the value for FLVCR1 (UniProt Q9Y5Y0) was inactive: 0.002.
On to FAM49B (UniProt Q9NUQ9), for which the log2 fold change was inactive: 0.033.
Regarding FAM210A (UniProt Q96ND0), the log2 fold change is inactive: -0.029.
On the same count and under the same terms, for FBXO30 (UniProt Q8TB52) the value was inactive: 0.075; for FKBP2 (UniProt P26885), inactive: -0.053.
Turning to FKBP15 (UniProt Q5T1M5), the log2 fold change is inactive: 0.029.
FAR1 (UniProt Q8WVX9): the log2 fold change was inactive: 0.024.
On the same count and under the same terms, the value for FH (UniProt P07954) was inactive: 0.013; that for FLII (UniProt Q13045) was inactive: 0.003.
As for FNBP4 isoform 2 (UniProt Q8N3X1), the log2 fold change was inactive: -0.036.
In the case of FAM98B (UniProt Q52LJ0), the log2 fold change was inactive: 0.065.
As for FBXL20 (UniProt Q96IG2), the log2 fold change is inactive: -0.032.
For FBXL18 isoform 4 (UniProt Q96ME1), the log2 fold change is inactive: 0.068.
For the target FLYWCH2 (UniProt Q96CP2), the log2 fold change is inactive: 0.034.
The same measure, in the same setting: the value for FAM76B (UniProt Q5HYJ3) was inactive: -0.017; that for FASN (UniProt P49327) was inactive: 0.064.
With FKBP1A (UniProt P62942), the log2 fold change was inactive: 0.127.
Take FBLL1 (UniProt A6NHQ2): the log2 fold change was inactive: 0.024.
On the same count and under the same terms, the value for FBXO5 (UniProt Q9UKT4) was inactive: -0.017.
FARSB (UniProt Q9NSD9): the log2 fold change was inactive: 0.045.
Still for that read-out and setting: for FLOT1 (UniProt O75955) the value was inactive: -0.021; for FCSK isoform 2 (UniProt Q8N0W3), inactive: 0.015.
With FBXO22 (UniProt Q8NEZ5), the log2 fold change was inactive: 0.027.
FN3K (UniProt Q9H479): the log2 fold change is inactive: 0.031.
As for FCGR2A (UniProt P12318), the log2 fold change is inactive: 0.043.
Regarding FN3KRP (UniProt Q9HA64), the log2 fold change was inactive: -0.005.
For FAM98A (UniProt Q8NCA5), the log2 fold change was inactive: -0.057.
Consider FKBP9 (UniProt O95302), for which the log2 fold change is inactive: -0.017.
Consider FAU (UniProt P62861), for which the log2 fold change is inactive: -0.062.
As to FKBP5 (UniProt Q13451), the log2 fold change was inactive: 0.134.
Turning to FDX2 (UniProt Q6P4F2), the log2 fold change is inactive: 0.04.
With FAM32A (UniProt Q9Y421), the log2 fold change is inactive: -0.053.

Compound in another assay: CCCc1cc(C)[nH]c(=O)c1CNC(=O)c1cc(-c2ccnc(N3CCN(C)CC3)c2)cc2c1cnn2C(C)C
The description is as above. In short, it runs like this: as §1
For FDX1 (UniProt P10109), the log2 fold change is inactive: -0.09.
On the same count and under the same terms, for FBXL12 (UniProt Q9NXK8) the value was inactive: -0.059; for FKBPL (UniProt Q9UIM3), inactive: -0.004.
In the case of FCGR2C (UniProt P31995), the log2 fold change is inactive: 0.01.
On the same count and under the same terms, for FANCB (UniProt Q8NB91) the value was inactive: 0.001.
On to FIP1L1 (UniProt Q6UN15), for which the log2 fold change is inactive: 0.034.
As to FLVCR1 (UniProt Q9Y5Y0), the log2 fold change was inactive: -0.033.
With FAM49B (UniProt Q9NUQ9), the log2 fold change was inactive: -0.075.
For the target FAM210A (UniProt Q96ND0), the log2 fold change was inactive: -0.003.
The same measure, in the same setting: for FBXO30 (UniProt Q8TB52) the value was inactive: -0.044; for FKBP2 (UniProt P26885), inactive: -0.002; for FKBP15 (UniProt Q5T1M5), inactive: 0.057.
With FAR1 (UniProt Q8WVX9), the log2 fold change is inactive: -0.011.
As to FH (UniProt P07954), the log2 fold change was inactive: -0.01.
Regarding FLII (UniProt Q13045), the log2 fold change is inactive: 0.011.
Regarding FNBP4 isoform 2 (UniProt Q8N3X1), the log2 fold change is inactive: -0.035.
As for FAM98B (UniProt Q52LJ0), the log2 fold change is inactive: 0.013.
For the target FBXL20 (UniProt Q96IG2), the log2 fold change is inactive: 0.032.
Turning to FBXL18 isoform 4 (UniProt Q96ME1), the log2 fold change was inactive: -0.014.
Still for that read-out and setting: for FLYWCH2 (UniProt Q96CP2) the value was inactive: 0.017; for FAM76B (UniProt Q5HYJ3), inactive: 0.041.
For FASN (UniProt P49327), the log2 fold change is inactive: -0.004.
Regarding FKBP1A (UniProt P62942), the log2 fold change was inactive: -0.04.
For FBLL1 (UniProt A6NHQ2), the log2 fold change was inactive: 0.096.
For the target FBXO5 (UniProt Q9UKT4), the log2 fold change is inactive: -0.06.
Still for that read-out and setting: for FARSB (UniProt Q9NSD9) the value was inactive: 0.017.
As for FLOT1 (UniProt O75955), the log2 fold change is inactive: 0.077.
For FCSK isoform 2 (UniProt Q8N0W3), the log2 fold change is inactive: -0.003.
As to FBXO22 (UniProt Q8NEZ5), the log2 fold change was inactive: -0.02.
Consider FN3K (UniProt Q9H479), for which the log2 fold change was inactive: 0.056.
On to FCGR2A (UniProt P12318), for which the log2 fold change is inactive: -0.13.
Take FN3KRP (UniProt Q9HA64): the log2 fold change is inactive: 0.089.
With FAM98A (UniProt Q8NCA5), the log2 fold change was inactive: 0.133.
As for FKBP9 (UniProt O95302), the log2 fold change was inactive: 0.027.
Same read-out and setting: for FAU (UniProt P62861) the value was inactive: 0.095; for FKBP5 (UniProt Q13451), inactive: 0.058.
As for FDX2 (UniProt Q6P4F2), the log2 fold change was inactive: -0.104.
On the same count and under the same terms, the value for FAM32A (UniProt Q9Y421) was inactive: -0.032.
